≈ marks a conversion by molar mass, not a printed value. Some results are limits rather than exact numbers.

Common to all, as to type: functional
Test [1] has as its system Alternaria alternata. In words: Antifungal activity against Alternaria alternata (CE172) after 48 to 72 hr.
Test [2] concerns Diaporthe longicolla. The test can be described thus: Antifungal activity against Diaporthe longicolla CE117 after 48 to 72 hr.
In test [3] the test system is Colletotrichum truncatum. The test can be described thus: Antifungal activity against Colletotrichum truncatum CE175 after 48 to 72 hr.
The subject of test [4] is Fusarium graminearum. In words: microbe, parasite or virus in culture. As to conditions: isolate CE170.
Test [5] concerns Fusarium graminearum. The test can be described thus: microbe, parasite or virus in culture. The note with it: isolate CE169.
For test [6], the system named is Fusarium equiseti. The test can be described thus: Antifungal activity against Fusarium equiseti (CE181) after 48 to 72 hr.
For test [7], the system named is Macrophomina phaseolina. The test can be described thus: Antifungal activity against Macrophomina phaseolina isolate CE173 after 48 to 72 hr.
The subject of test [8] is Fusarium graminearum. In words: microbe, parasite or virus in culture. As to conditions: isolate CE135.
In test [9] the test system is Fusarium graminearum. The test can be described thus: microbe, parasite or virus in culture. The note with it: isolate CE171.

In the case of `O=C1CC(c2ccccc2)Oc2cc(O)ccc21` (centres undefined) [7-HYDROXYFLAVANONE], the MIC was above 50 µg/mL in test [1]; 6.25 µg/mL (≈ 26 µM) in test [2]; above 50 µg/mL in test [3]; above 50 µg/mL in test [4]; above 50 µg/mL in test [5]; above 50 µg/mL in test [6]. Further, the MIC in test [7], in test [8] and in [9] was above 50 µg/mL each time.

Source of the values: ChEMBL document CHEMBL3046626, “Antifungal chalcones and new caffeic acid esters from Zuccagnia punctata acting against soybean infecting fungi” (2004).
